Experimental data from PubChem BioAssay AID1508600 (Functional Genomics Laboratory (NCATS/FGL), 2020).
The campaign covered roughly 53,000 sequences. About 3,700 (7%) were called active.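 The calls were made as follows: active = gene knockdowns whose robust z-score for IL-1 alpha signal is at least 2 or at most -2, so actives lie on both sides; inactive = the rest.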 The list shows a part of the results.

assay: Components of the Cytosolic LPS Sensing Pathway: Gene Identification via Genome-wide siRNA Screen; conditions: RAW264.7 macrophages, IL-1a HTRF, actives lie on both sides, screened at 100 nM (by protocol), cells primed 5 h with Pam3CSK4 first;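 also: robust z of the log signal after scaling to non-targeting control siRNA wells of the plate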
In short: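 RAW264.7 mouse macrophages reverse-transfected with single siRNAs (100 nM final) for 48h, primed with Pam3CSK4 for 5 hours, then transfected with LipidA for 24 hour. Supernatant IL-1a read by HTRF; values normalized to negative-control median, log-transformed robust z-scores.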

Sequence | z-score
GCCGGUGACUGUUGUGUAUTT against Mppe1 | inactive: 0.0525
GGAAGAGAAUGUGAAGCUGTT against Aqp3 | inactive: -0.787
AGUGGGCUUCAAAUUUCCATT against Aym1 | inactive: -0.551
GGAAAAUCUUCUAUCGAACTT against Prdm9 | inactive: 0.383
GGAUGAAGAACUGACUCCGTT against Mboat2 | inactive: -0.108
GCAUAGACAUGGCUGCAUUTT against Arntl2 | inactive: 0.442
GGAGGAUCUUUCAAAGAGATT against Egfl8 | inactive: 0.763
GGAUUUAACAGAGAUACUGTT against H2-M11 | inactive: -0.703
GGGCUUCCUUAUGAAUUGATT against Rbmx2 | inactive: 0.442
GCCCAUGUUAGAGGUUUUGTT against Rsph3a | inactive: 0.838
GGCAAACGAAUGCAUGUACTT against Rbm4b | inactive: -0.485
GGCCUCACAGUGCUUUCUCTT against Olfr1232 | inactive: 0.0779
GGAUUCCUUUCACAAGGCCTT against Rab17 | inactive: 1.18
GCCAGAUGGUACGAAUGGCTT against Cdc5l | inactive: -1.18
GGCCAGAAGAACUAACAGUTT against Cept1 | inactive: -0.11
GGCAAAGAGAGAAUUAAAUTT against Ssx2ip | inactive: -1.15
GGGUCAUUUCCUAUGCAGGTT against Olfr866 | inactive: -1.24
GGCUGAGCUGAUCUUCUUATT against Wnt8a | inactive: -0.037
GGAUAGCAUCCUCUUGCAUTT against Fa2h | inactive: -1.29
CCCGGAAUAAGACAAUUUCTT against Olfr788 | inactive: 0.282
GCACAGUCUCAUGAAUAUUTT against A130014H13Rik | inactive: -1.22
GGUCCAGAAGCAGAUGCUUTT against Zdhhc15 | inactive: -0.174
GGGCUAUGAACCUGAAGAGTT against Msl1 | inactive: 1.33

Sequence | z-score
GCAAGACGUGACCUGAAAGTT against Gpc3 | inactive: -0.99
GGGAGAAGUGCUGUGGAUUTT against Fras1 | inactive: 0.401
GGAGAGGAAGAUUUUCUCCTT against Ttll8 | inactive: 0.52
GGAACAAGAAGUUGAAACATT against Capn6 | inactive: -0.894
GGAUCUGAAGACAGUGUUUTT against Dap3 | inactive: -0.245
GAGAACUCUCUAAACAAGUTT against Cks2 | inactive: 0.714
GGACAAUUAAGAUAGCCAUTT against Fhod3 | inactive: -0.153
GGAGGAGAAAAUCAAACCATT against Ddx19b | inactive: -1.18
CGUAUUUUUACUGGUUGGGTT against Ermard | inactive: 0.101
GGUCAAAGUGAUUGUGUGUTT against Cdh16 | inactive: 0.555
GCAAAGCUUCUUUUGGGAUTT against Runx2 | inactive: 0.262
CGACGAAGUGGUCGGAAUUTT against Cryzl1 | active: 2.1
CCCAGAACUAUUCAACACUTT against Sema4g | inactive: -1.09
GCAAGUGUGGUUAAUCUGCTT against Thada | inactive: -0.462
GCAUUUUGACCCAAGUGUUTT against Foxq1 | inactive: -0.184
GGGAACACCCACGAACUCATT against Polrmt | inactive: 1.45
AUAAGGAUGUCCAUCUUGCTT against Olfr884 | inactive: -1.17
GGACCUAAAGAUAAUAAGUTT against Pex3 | inactive: -0.481
GUGAAGGCCCAUGGCAAGATT against Hbb-b1 | inactive: -0.235
CCACAGAUUCCAUGAUCCCTT against Gdap1l1 | inactive: -0.555
GGACUUGGACUGUGAAAACTT against Vgll4 | inactive: -1.45
GGACUUCCAUUCUUUUUCATT against Klf11 | inactive: -0.29
GCAUUGUCCAGGUAUCUCATT against B230206H07Rik | inactive: -0.409

Sequence | z-score
GGCUGCACAAACAUGGUUCTT against Pard6a | inactive: -0.146
GGUGGAACUCGUCAAUAGCTT against Vat1 | inactive: 0.269
GGUGCUAAAGAUCUGAGAUTT against Ly6g2 | inactive: 0.704
GGUUCACUACAACAUUGGCTT against Tmtc4 | inactive: -0.686
CCGCCUUCGGGAAUUCUUUTT against Trim25 | inactive: -0.269
GCAAUGGUUGGUUCAAUAATT against Lrrc56 | inactive: -0.458
GGAAAAGAUUGUCUUUGAUTT against Nup133 | inactive: -1.11
GGUGCUAUUCAUCUGCACGTT against Lonp1 | inactive: -1.09
CGCCCAAAUUGACUAUUUGTT against Fam214b | inactive: 0.351
GGGAAGAAAAUGAAAGGUUTT against Cdk5rap2 | inactive: -1.14
GGCAGAAGAAGUGGCCAAGTT against Elk3 | inactive: 1.82
GGAGAAUGAGCAAAUCAAATT against Olfml2b | inactive: 1.54
AUACGAUUUUUGUACUGCUTT against Defa4 | inactive: 0.305
GGAUAAUGGUUUAAAACUCTT against Bmt2 | inactive: -1.34
CGAGCUUUGAAAGUUUAAUTT against Pcsk2 | inactive: 0.591
GGUGAAGUGUGAAACAAUGTT against Ube2m | inactive: -1.11
GGUUUUUAACUGGAAAACUTT against Ppwd1 | inactive: 1.22
CCUUCAUGCAACAGCUACUTT against Nckap5l | active: -2.57
GCGGUGAUGAGAGAAACCATT against Zfp617 | inactive: 0.872
GCCCAUUUUAGCUAGAAUCTT against Cd300lg | inactive: -0.0981
GGACUCCAAGAUCAUGGUCTT against Pnck | inactive: 1.07
GAUCUUUCGACACAUCACCTT against Cyp4a12a | active: -2.02
